Laboratory results published in the supplement of paper PMC7877785.
± gives the uncertainty stated by the source. Many of these values have a large error.

Assay: self-splicing fitness, log relative to wild type (ln ratio); higher = more splicing; Tetrahymena group I intron in knt gene, E. coli kanamycin selection, DiMSum; sequences stand for … in CUCUCU…GGAGGGAAAAGUUAUCAGGCAUGCACCUGGUAGCUAGUCUUUAAACCAAUAGAUUGCAUCGGUUUAAAAGGCAAGACCGUCAAAUUGCGGGAAAGGGGUCAACAGCCGUUCAGUACCAAGUCUCAGGGGAAACUUUGAGAUGGCCUUGCAAAGGGUAUGGUAAUAAGCUGACGGACAUGGUCCUAACCACGCAGCCAAGUCCUAAGUCAACAGAUCUUCUGUUGAUAUGGAUGCAGUUCACAGACUAAAUGUCGGUCGGGGAAGAUGUAUUCUUCUCAUAAGAUAUAGUCGGACCUCUCCUUAAUGGGAGCUAGCGGAUGAAGUGAUGCAACACUGGAGCCGCUGGGAACUAAUUUGUAUGCGAAAGUAUAUUGAUUAGUUUUGGAGUACUCGUGGUCG
Summary of the method: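 A randomised library covering all eight P1ex-region intron nucleotides was built with the intron in the knt kanamycin-resistance gene on pET-22b(+) and held in E. coli BL21(DE3). Cells were grown overnight at 37°C or 30°C on LB agar, with or without 25 μg/mL kanamycin, plus 100 μg/mL carbenicillin, 50 μM IPTG and 0.2% rhamnose, and pooled colonies were amplicon-sequenced on an Illumina HiSeq 2500. DiMSum fitness is the error-weighted combination of wild-type-normalised replicate fold changes, kanamycin versus none.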

Row | Sequence | self-splicing fitness (ln) (30 °C) | self-splicing fitness (ln) (37 °C)
1 | CCAGAGCAAUAUUACGUAGG | -3.25 ± 0.19 | -2.6 ± 0.25
2 | AGAUAGCAAUAUUACGCCGG |  | 0.0981 ± 0.71
3 | AUUUAGCAAUAUUACGGGGA | -2.36 ± 0.78 | -1.94 ± 0.66
4 | CCUGAGCAAUAUUACGGCUA | -1.85 ± 0.33 | -1.27 ± 0.55
5 | CUAGAGCAAUAUUACGGGCA | -4.55 ± 0.72 | 
6 | UCGAAGCAAUAUUACGCCAC | -4.22 ± 0.74 | 
7 | AUAUAGCAAUAUUACGACCC |  | -0.334 ± 0.56
8 | UGCGAGCAAUAUUACGUUGG | -3.52 ± 0.52 | 
9 | AUUAAGCAAUAUUACGGUGC |  | -3.29 ± 0.6
10 | CGUGAGCAAUAUUACGUUAC |  | -4.13 ± 1
11 | GGACAGCAAUAUUACGCUUC |  | -1.7 ± 0.6
12 | GAAGAGCAAUAUUACGACAA | -3.31 ± 1 | 
13 | CCUGAGCAAUAUUACGGCCG | -2.47 ± 0.66 | 
14 | GUGCAGCAAUAUUACGAAGG | -2.59 ± 0.19 | -1.53 ± 0.23
15 | GGGGAGCAAUAUUACGUUAA | -2.53 ± 0.4 | -1.95 ± 0.35
16 | GAGGAGCAAUAUUACGGGUA | -4.44 ± 1 | -2.26 ± 0.36
17 | AUCGAGCAAUAUUACGCCCU |  | -1.24 ± 0.66
18 | CUCUAGCAAUAUUACGCUCC | -3.17 ± 1 | 
19 | UGACAGCAAUAUUACGUCAC | -3.74 ± 0.17 | -3.16 ± 0.23
20 | UUUAAGCAAUAUUACGUUCC | -4.08 ± 0.73 | -1.53 ± 0.69
21 | GCUGAGCAAUAUUACGCCGA | -2.63 ± 0.73 | 
22 | UCGUAGCAAUAUUACGAAUG | -2.01 ± 0.29 | -1.76 ± 0.7
23 | UUGUAGCAAUAUUACGAGAG |  | -3.15 ± 0.52
24 | ACGGAGCAAUAUUACGGCAU | -3.2 ± 0.56 | 

Row | Sequence | self-splicing fitness (ln) (30 °C) | self-splicing fitness (ln) (37 °C)
25 | CUUCAGCAAUAUUACGUGCC |  | -3.49 ± 1
26 | GCGUAGCAAUAUUACGCUGU |  | -3.48 ± 0.59
27 | AGUGAGCAAUAUUACGGUAC |  | -3.3 ± 0.52
28 | UCUAAGCAAUAUUACGUGCU | -4.04 ± 0.34 | -2.37 ± 0.2
29 | AGUGAGCAAUAUUACGAAAG | -2.65 ± 0.57 | -2.62 ± 0.53
30 | UACAAGCAAUAUUACGAGAA | -2.1 ± 0.29 | -2.42 ± 0.33
31 | UAGGAGCAAUAUUACGCACU | -4.15 ± 0.51 | 
32 | CGAGAGCAAUAUUACGUAAU | -4.11 ± 0.51 | 
33 | GGAAAGCAAUAUUACGGUCC |  | -1.98 ± 1.1
34 | AACGAGCAAUAUUACGGGGA | -2.72 ± 0.21 | -3.6 ± 0.34
35 | AGGGAGCAAUAUUACGGCUC |  | -1.61 ± 0.84
36 | UGCGAGCAAUAUUACGUGGC | -2.81 ± 0.56 | -2.8 ± 0.61
37 | UUACAGCAAUAUUACGGCCC |  | -1.13 ± 0.83
38 | GUUGAGCAAUAUUACGAACC |  | -0.656 ± 0.82
39 | AGUGAGCAAUAUUACGUCAC | -3.19 ± 0.67 | -2.96 ± 0.75
40 | UAUUAGCAAUAUUACGAACC |  | -1.25 ± 0.84
41 | GCGAAGCAAUAUUACGCAGA |  | -3.52 ± 0.6
42 | GUGUAGCAAUAUUACGGUAG | -3.17 ± 0.79 | 
43 | UCGGAGCAAUAUUACGGGUA | -3.03 ± 0.64 | 
44 | AUUUAGCAAUAUUACGGGCC | -3.15 ± 0.74 | -1.79 ± 0.53
45 | AUAGAGCAAUAUUACGGAGC | -3.73 ± 0.59 | 
46 | CUUUAGCAAUAUUACGGCUU |  | -2 ± 0.67
47 | UUAUAGCAAUAUUACGUGAU | -4.11 ± 0.6 | -1.75 ± 0.81
48 | AGGGAGCAAUAUUACGCAUC | -1.27 ± 1 | -0.876 ± 0.54

Row | Sequence | self-splicing fitness (ln) (30 °C) | self-splicing fitness (ln) (37 °C)
49 | GAGCAGCAAUAUUACGCACU | 0.841 ± 0.59 | -0.862 ± 0.58
50 | GGCGAGCAAUAUUACGCUGG |  | -2.29 ± 0.64
51 | GAGUAGCAAUAUUACGGCGA | -0.645 ± 0.16 | -0.441 ± 0.2
52 | AAUGAGCAAUAUUACGCCUC | -3.86 ± 0.73 | -3.08 ± 1
53 | AAAGAGCAAUAUUACGAACC | -2.36 ± 0.59 | 
54 | CGGUAGCAAUAUUACGCCGU | -5.78 ± 1 | -2.98 ± 0.53
55 | UGUUAGCAAUAUUACGACUA | 0.407 ± 0.22 | -0.164 ± 0.19
56 | GUUGAGCAAUAUUACGGUCG | -3.56 ± 0.52 | 
57 | GUAGAGCAAUAUUACGGAAC |  | -1.41 ± 0.58
58 | ACGAAGCAAUAUUACGCCUG | -0.445 ± 0.095 | 0.217 ± 0.12
59 | GACUAGCAAUAUUACGCGUU | -5.26 ± 0.72 | 
60 | UAAUAGCAAUAUUACGAUCC |  | -3.08 ± 0.74
61 | CAGCAGCAAUAUUACGAGUG | -1.54 ± 0.056 | -0.155 ± 0.074
62 | GCGGAGCAAUAUUACGAAGG |  | -2.84 ± 1
63 | GUUAAGCAAUAUUACGGGCC | -3.57 ± 1 | 
64 | GUUGAGCAAUAUUACGCUCC |  | -0.234 ± 1.4
65 | GGAGAGCAAUAUUACGUGCU |  | -3.71 ± 0.52
66 | GAAUAGCAAUAUUACGAUAG | -0.707 ± 0.15 | -1.47 ± 0.22
67 | CUGAAGCAAUAUUACGCACA | -2.43 ± 0.55 | -1.39 ± 0.87
68 | GGAAAGCAAUAUUACGCUCU |  | -2.15 ± 0.64
69 | GCUUAGCAAUAUUACGUUAA | -4.66 ± 0.72 | 
70 | GGGUAGCAAUAUUACGACGG | -3.76 ± 0.54 | 
71 | GCUUAGCAAUAUUACGCCAU | -3.49 ± 0.54 | 
72 | CGGGAGCAAUAUUACGGGGC | -4.1 ± 0.52 | 

27 successive records out of the list so far, quoted:
Row | Sequence | self-splicing fitness (ln) (30 °C) | self-splicing fitness (ln) (37 °C)
46 | CUUUAGCAAUAUUACGGCUU |  | -2 ± 0.67
47 | UUAUAGCAAUAUUACGUGAU | -4.11 ± 0.6 | -1.75 ± 0.81
48 | AGGGAGCAAUAUUACGCAUC | -1.27 ± 1 | -0.876 ± 0.54
49 | GAGCAGCAAUAUUACGCACU | 0.841 ± 0.59 | -0.862 ± 0.58
50 | GGCGAGCAAUAUUACGCUGG |  | -2.29 ± 0.64
51 | GAGUAGCAAUAUUACGGCGA | -0.645 ± 0.16 | -0.441 ± 0.2
52 | AAUGAGCAAUAUUACGCCUC | -3.86 ± 0.73 | -3.08 ± 1
53 | AAAGAGCAAUAUUACGAACC | -2.36 ± 0.59 | 
54 | CGGUAGCAAUAUUACGCCGU | -5.78 ± 1 | -2.98 ± 0.53
55 | UGUUAGCAAUAUUACGACUA | 0.407 ± 0.22 | -0.164 ± 0.19
56 | GUUGAGCAAUAUUACGGUCG | -3.56 ± 0.52 | 
57 | GUAGAGCAAUAUUACGGAAC |  | -1.41 ± 0.58
58 | ACGAAGCAAUAUUACGCCUG | -0.445 ± 0.095 | 0.217 ± 0.12
59 | GACUAGCAAUAUUACGCGUU | -5.26 ± 0.72 | 
60 | UAAUAGCAAUAUUACGAUCC |  | -3.08 ± 0.74
61 | CAGCAGCAAUAUUACGAGUG | -1.54 ± 0.056 | -0.155 ± 0.074
62 | GCGGAGCAAUAUUACGAAGG |  | -2.84 ± 1
63 | GUUAAGCAAUAUUACGGGCC | -3.57 ± 1 | 
64 | GUUGAGCAAUAUUACGCUCC |  | -0.234 ± 1.4
65 | GGAGAGCAAUAUUACGUGCU |  | -3.71 ± 0.52
66 | GAAUAGCAAUAUUACGAUAG | -0.707 ± 0.15 | -1.47 ± 0.22
67 | CUGAAGCAAUAUUACGCACA | -2.43 ± 0.55 | -1.39 ± 0.87
68 | GGAAAGCAAUAUUACGCUCU |  | -2.15 ± 0.64
69 | GCUUAGCAAUAUUACGUUAA | -4.66 ± 0.72 | 
70 | GGGUAGCAAUAUUACGACGG | -3.76 ± 0.54 | 
71 | GCUUAGCAAUAUUACGCCAU | -3.49 ± 0.54 | 
72 | CGGGAGCAAUAUUACGGGGC | -4.1 ± 0.52 | 

(continued)

Row | Sequence | self-splicing fitness (ln) (30 °C) | self-splicing fitness (ln) (37 °C)
73 | CUGAAGCAAUAUUACGUCCC |  | -1.37 ± 1.2
74 | UGGGAGCAAUAUUACGUCAC |  | -1.38 ± 0.63
75 | UGUGAGCAAUAUUACGGCGC |  | -0.44 ± 1.4
76 | UCUAAGCAAUAUUACGCUCU | -3.32 ± 0.47 | -2.58 ± 0.41
77 | GAGUAGCAAUAUUACGUCAC |  | -3.99 ± 0.72
78 | GCUCAGCAAUAUUACGCUGC | -3.88 ± 0.72 | -1.99 ± 0.51
79 | AUCGAGCAAUAUUACGGAGC | -2.84 ± 0.77 | -2.79 ± 0.75
80 | UCGCAGCAAUAUUACGCAAG | -3.01 ± 0.17 | -1.69 ± 0.25
81 | GGCUAGCAAUAUUACGCAGC | -3.46 ± 0.58 | 
82 | CCGGAGCAAUAUUACGAGAC |  | -3.5 ± 0.52
83 | UACGAGCAAUAUUACGCGCG | -1.35 ± 0.13 | -1.14 ± 0.18
84 | CUCGAGCAAUAUUACGCUGU | -4.52 ± 0.72 | 
85 | CAUGAGCAAUAUUACGGUCU | -3.11 ± 0.28 | -1.2 ± 0.18
86 | GAAGAGCAAUAUUACGGCCG | -2.63 ± 0.42 | -0.854 ± 0.29
87 | CAUAAGCAAUAUUACGCAAC | -4.16 ± 0.59 | -3.24 ± 0.52
88 | UGGGAGCAAUAUUACGAGGG | -4.89 ± 1 | 
89 | CCUAAGCAAUAUUACGUUCA | -4.67 ± 0.51 | -3.79 ± 0.51
90 | AGACAGCAAUAUUACGCACG | -2.11 ± 0.12 | -0.922 ± 0.13
91 | GAUAAGCAAUAUUACGAUCC | -1.63 ± 0.61 | -2.43 ± 0.79
92 | GUCUAGCAAUAUUACGCUGC | -5.11 ± 0.58 | 
93 | UAAUAGCAAUAUUACGUCAU | -4 ± 0.28 | -2.52 ± 0.22
94 | UUAUAGCAAUAUUACGACGC |  | -1.51 ± 0.63
95 | CCCUAGCAAUAUUACGAGCC |  | -3.53 ± 0.73
96 | UAUGAGCAAUAUUACGACGC | -3.13 ± 1 | 

Row | Sequence | self-splicing fitness (ln) (30 °C) | self-splicing fitness (ln) (37 °C)
97 | CACGAGCAAUAUUACGUAAC |  | -2.61 ± 0.55
98 | CUUCAGCAAUAUUACGCCUC | -4.79 ± 1 | 
99 | GCUGAGCAAUAUUACGCAGC | -2.5 ± 0.91 | 
100 | CGAUAGCAAUAUUACGAUAC | -4.5 ± 0.59 | 
101 | UAAGAGCAAUAUUACGGUGC | -3.43 ± 0.28 | 
102 | UGUGAGCAAUAUUACGCGAC |  | -3.48 ± 0.76
103 | GUUAAGCAAUAUUACGUGGU | -2.79 ± 0.15 | -2.35 ± 0.19
104 | UCGGAGCAAUAUUACGCCCC |  | -0.595 ± 1.4
105 | UUGUAGCAAUAUUACGAAAC | -3.6 ± 1 | 
106 | CCAGAGCAAUAUUACGCCUU | -3.57 ± 0.25 | -2.37 ± 0.25
107 | GCGGAGCAAUAUUACGGGUC | -5.62 ± 1 | -1.94 ± 0.55
108 | UAUUAGCAAUAUUACGCGCC |  | -0.483 ± 0.61
109 | GUCCAGCAAUAUUACGUGCG | -1.15 ± 0.085 | -1.14 ± 0.12
110 | GACGAGCAAUAUUACGGAGA | -4.47 ± 1 | 
111 | CCGAAGCAAUAUUACGUCCA | -2.06 ± 0.51 | -2.68 ± 0.62
112 | CUCUAGCAAUAUUACGCCGC | -2.42 ± 1.2 | 
113 | GGUUAGCAAUAUUACGCAAU |  | -1.52 ± 0.61
114 | UUCUAGCAAUAUUACGCGAC |  | -1.53 ± 0.69
115 | AUGGAGCAAUAUUACGCAGA |  | -0.693 ± 0.82
116 | CUGUAGCAAUAUUACGCGCU | -5.1 ± 0.72 | -3.8 ± 0.52
117 | UACGAGCAAUAUUACGAAGA |  | -2.93 ± 0.53
118 | CACUAGCAAUAUUACGCUAA | -3.33 ± 0.3 | -1.75 ± 0.19
119 | GUUUAGCAAUAUUACGGGCC |  | -0.681 ± 1.4
120 | CCCGAGCAAUAUUACGGCCC | -4.33 ± 0.73 | -2.57 ± 1.1
